Laboratory results published in US6613756B2 (Wisconsin Alumni Research Foundation, priority 2000, dated 2003).
Structures can show the parent of a compound that is named as a salt. At least one structure is not confirmed: it was looked up by name or label, or the drawing left a doubt.

What was measured:
[1] = test system: transplanted cells; test: Survival of cells transplanted in an animal model of multiple sclerosis; format: in vivo; conditions: minocycline given three days before transplantation
[2] = test system: cultured neurons; conditions: in vitro; Yrjänheikki et al. 1999; cited from earlier work

## CN(C)c1ccc(O)c2c1C[C@H]1C[C@H]3[C@H](N(C)C)C(O)=C(C(N)=O)C(=O)[C@@]3(O)C(O)=C1C2=O [Minocycline, Minocycline hydrochloride]
[1]
  survival of transplanted cells: can prevent the cells from dying
[2]
  survival of cultured neurons exposed to glutamate: promotes survival of cultured neurons
